PubChem BioAssay AID652243 | Drosophila RNAi Screening Center – 2013
The screen tested about 24,000 reagents; this is a random part of those with a known target gene and a result. Over the whole deposit, 246 (1%) were called active. 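Plates not normalised; calls are printed but the firefly/Renilla ratio behind them is not deposited; fold cut for lowering reported inconsistently.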 Raw values are not corrected between plates. A number with no mark means an inactive call. Names joined by + are all predicted targets of the reagent. No sequences are given here. Not given: the amount of reagent.

Purpose: 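Fly regulators of androgen-dependent reporter output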 (primary screen)
Cells: Drosophila S2R+ cells
Reagents: long dsRNA against Drosophila genes
Time to read-out: 72 h (48 h, then 24 h hormone)
Conditions: synthetic androgen R1881 at 10 nM for 24 h
Detection: 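Firefly light from an androgen-responsive reporter and Renilla control light per well, raw and unnormalised, for each of two replicates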
Scale: firefly reporter light: higher = more light from androgen-responsive reporter; Renilla control light: higher = more constitutive control signal (cell number, transfection)
Active means: 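Across duplicate plates, a knock-down whose log firefly/Renilla ratio shifted a set fold down or up from the GFP/LacZ control mean was a hit; the downward cut appears as both 1.5 and 3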
Meaning of the calls: active = hit: reporter lowered or raised; inactive = no hit

sle + CG12592 [DRSC21387] showed firefly reporter light, replicate 1 = 3.33e5; firefly reporter light, replicate 2 = 3.88e5; Renilla control light, replicate 1 = 2.25e6; Renilla control light, replicate 2 = 2.01e6.
With knock-down of sle + CG12592 [DRSC27126], the record shows firefly reporter light, replicate 1 = 2.86e5; firefly reporter light, replicate 2 = 2.35e5; Renilla control light, replicate 1 = 5.34e5; Renilla control light, replicate 2 = 5.17e5.
CG31675 [DRSC01825] scored firefly reporter light, replicate 1 = 1.51e5; firefly reporter light, replicate 2 = 1.73e5; Renilla control light, replicate 1 = 5.67e5; Renilla control light, replicate 2 = 4.24e5.
Silencing of CG31675 [DRSC26340] gave: firefly reporter light, replicate 1 = 3.52e5; firefly reporter light, replicate 2 = 2.91e5; Renilla control light, replicate 1 = 6.49e5; Renilla control light, replicate 2 = 6.14e5.

Entries listed so far whose gene name begins with C or c (2):
CG31675 [DRSC01825] → firefly reporter light, replicate 1: 1.51e5; firefly reporter light, replicate 2: 1.73e5; Renilla control light, replicate 1: 5.67e5; Renilla control light, replicate 2: 4.24e5
CG31675 [DRSC26340] → firefly reporter light, replicate 1: 3.52e5; firefly reporter light, replicate 2: 2.91e5; Renilla control light, replicate 1: 6.49e5; Renilla control light, replicate 2: 6.14e5

The listing continues:
Depletion of frac [DRSC10867] resulted in: firefly reporter light, replicate 1 = 1.11e6; firefly reporter light, replicate 2 = 9.73e5; Renilla control light, replicate 1 = 1.41e6; Renilla control light, replicate 2 = 1.47e6.
frac [DRSC29239] showed firefly reporter light, replicate 1 = 4.88e5; firefly reporter light, replicate 2 = 5.47e5; Renilla control light, replicate 1 = 1.91e6; Renilla control light, replicate 2 = 1.50e6.
With knock-down of CG4461 [DRSC10423], the record shows firefly reporter light, replicate 1 = 2.99e5; firefly reporter light, replicate 2 = 1.60e5; Renilla control light, replicate 1 = 2.52e6; Renilla control light, replicate 2 = 1.65e6.
Depletion of CG4461 [DRSC29266] resulted in: firefly reporter light, replicate 1 = 3.96e5; firefly reporter light, replicate 2 = 5.63e5; Renilla control light, replicate 1 = 1.55e6; Renilla control light, replicate 2 = 1.79e6.
CG4461 [DRSC39049] gave firefly reporter light, replicate 1 = 8.24e5; firefly reporter light, replicate 2 = 7.55e5; Renilla control light, replicate 1 = 2.50e6; Renilla control light, replicate 2 = 1.95e6.
CG9896 [DRSC03962] scored firefly reporter light, replicate 1 = 1.88e5; firefly reporter light, replicate 2 = 1.76e5; Renilla control light, replicate 1 = 2.91e5; Renilla control light, replicate 2 = 4.15e5.
Against CG9896 [DRSC04594] the deposit lists firefly reporter light, replicate 1 = 2.97e5; firefly reporter light, replicate 2 = 2.54e5; Renilla control light, replicate 1 = 2.24e6; Renilla control light, replicate 2 = 2.69e6.
After knock-down of CG8915 [DRSC20119] the results were firefly reporter light, replicate 1 = 1.42e5; firefly reporter light, replicate 2 = 1.90e5; Renilla control light, replicate 1 = 1.10e6; Renilla control light, replicate 2 = 9.70e5.
Silencing of Met75Ca + Met75Cb [DRSC09549] resulted in: firefly reporter light, replicate 1 = 3.43e5; firefly reporter light, replicate 2 = 3.45e5; Renilla control light, replicate 1 = 1.04e6; Renilla control light, replicate 2 = 9.01e5.
Met75Ca + Met75Cb [DRSC11221] gave firefly reporter light, replicate 1 = 3.10e5; firefly reporter light, replicate 2 = 2.50e5; Renilla control light, replicate 1 = 3.19e6; Renilla control light, replicate 2 = 3.06e6.
